Test results reported in PubChem BioAssay AID485314 (National Center for Advancing Translational Sciences (NCATS), 2010).
Out of some 340,000 compounds screened, about 4,500 (1.3%) were called active. Inconclusive means that the source gave no clear call. Such entries were picked first, then a sample of the others. Calls follow the shape of the dose curve; as a rule, active = well fitted inhibition curve with a large enough effect; inconclusive = small, poorly fitted or top-dose-only effect, or another doubt; inactive = no such curve, though single readings can be large or run the other way. Where the call is inconclusive, the potency comes from a doubtful curve fit.
% is scaled to controls: 0 for no effect and ±100 for the full control effect; potency is read from the fitted curve at half-maximal effect.

Each compound was assayed against DNA polymerase beta (Homo sapiens) (UniProt P06746) (assay: qHTS Assay for Inhibitors of DNA Polymerase Beta). Details: Pol beta primer extension/strand displacement, fluorescence kinetic; activity change, negative = inhibition: at 114 µM (top of the series).
Procedure, shortened: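 Homogeneous kinetic assay of primer extension and strand displacement by 10 nM Pol beta, preincubated 15 min at room temperature with compound before 50 nM substrate (final) was added. Read at 0 and 10 min; four-parameter Hill fit.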
In the case of `Cc1cc(C)nc(NC(=O)CSc2nc3ccccc3s2)n1`, the Potency is reported as inconclusive: 0.141 µM [inhibitor, full curve, poor fit]. With `NC(=S)c1ccc[n+]([C@@H]2O[C@@H](COP(=O)([O-])OP(=O)(O)OC[C@H]3O[C@@H](n4cnc5c(N)ncnc54)[C@H](OP(=O)(O)O)[C@H]3O)C(O)C2O)c1` (stereo partly specified) the Potency was “inactive”. For `COc1cccc(CNC(=O)CCCn2nc(C)c3sc4ccccc4c3c2=O)c1`, the Potency was “inactive”. For `O=C(O)c1ccc(N/N=C/c2ccc(-c3cccc(Cl)c3)o2)cc1`, the activity change, negative = inhibition was inconclusive: -33% [inhibitor]. In the case of `CCOC(=O)N1CCc2c(sc(NC(=O)CCS(=O)(=O)c3ccccc3)c2C(N)=O)C1`, the Potency is reported as inconclusive: 1 µM [inhibitor, full curve, poor fit]. With `Cc1cccc(N/N=C(\C#N)S(=O)(=O)C(C)(C)C)c1` the Potency was inconclusive: 1.12 µM [inhibitor, full curve, poor fit]. In the case of `CCc1nnc(SC(CC)C(=O)Nc2ccc(OC)c(Cl)c2)c2cc3occc3n12` (stereo unspecified), the Potency is reported as inconclusive: 3.98 µM [inhibitor, single point]. `CC1CCCN(S(=O)(=O)c2ccc(C(=O)Nc3nnc(-c4ccccn4)o3)cc2)C1` (stereo unspecified) was tested, and the Potency was inconclusive: 39.8 µM [inhibitor, single point]. With `CCc1cccc(C)c1NC(=O)C1CCN(S(=O)(=O)c2c(C)noc2/C=C/c2c(C)cc(C)cc2C)CC1` the Potency was inconclusive: 89.1 µM [inhibitor, single point]. `Cc1ccc(Nc2ccc3cc(S(=O)(=O)N4CCCCC4)ccc3n2)cc1F` was tested, and the Potency was “inactive”. With `CC(=O)Nc1ccc(S(=O)(=O)NCCC(=O)OCC(=O)N2CCN(C(=O)c3ccco3)CC2)cc1` the Potency was active: 44.7 µM. With `COc1ccc(-c2cc3nc(C)c(CCC(=O)NCc4ccccc4Cl)c(C)n3n2)c(OC)c1` the Potency was inconclusive: 63.1 µM [inhibitor, single point]. In the case of `COc1ccccc1CNC(=O)CCCn1c(=O)c2ccccc2n(Cc2ccc(F)cc2)c1=O`, the Potency is reported as “inactive”. In the case of `COc1cc(C2c3c(oc4ccccc4c3=O)C(=O)N2c2ccc(C)cn2)ccc1O` (stereo unspecified), the Potency is reported as “inactive”. For `C=CCCCCCCCCC(=O)NNC1CC(=O)N(c2ccccc2)C1=O` (stereo unspecified), the Potency was inconclusive: 56.2 µM [inhibitor, single point]. For `COc1ccccc1NC(=O)c1c(C)cc(C)nc1SCC(=O)Nc1ccc(C)c(C)c1`, the Potency was inconclusive: 100 µM [inhibitor, single point]. In the case of `O=S(=O)(Nc1nc2ccccc2nc1Cl)c1ccc(Cl)cc1`, the Potency is reported as inconclusive: 100 µM [inhibitor, single point]. `O=c1cc(-c2ccco2)nc(-c2cccs2)o1` was tested, and the Potency was inconclusive: 8.91 µM [inhibitor, full curve]. For `Cc1cc(/C=C\c2nc(O)c([N+](=O)[O-])c(=O)[nH]2)c(C)n1-c1ccccc1`, the Potency was active: 25.1 µM. For `CC1(C)CC(=O)C(C(=O)CCCCC(=O)C2C(=O)CC(C)(C)CC2=O)C(=O)C1`, the Potency was inconclusive: 70.8 µM [inhibitor, partial curve]. In the case of `COc1ccc(CNC(=O)c2noc(C)c2[N+](=O)[O-])cc1`, the Potency is reported as inconclusive: 28.2 µM [inhibitor, single point]. With `CCc1ccc2nc(NC(=O)c3ccc4c(=O)[nH]c(CN5CCOCC5)nc4c3)sc2c1` the Potency was active: 79.4 µM. `Cc1ccc(N=Nc2ccc(O)c(/C=N\NC(=O)c3ccc(N)cc3)c2)cc1C` was tested, and the Potency was inconclusive: 3.98 µM [inhibitor, full curve]. `CCc1ccc(N(CC)C(=O)CCn2cnc3onc(-c4ccc(F)cc4)c3c2=O)cc1` was tested, and the Potency was “inactive”. For `CC(=O)OCCCNc1cc(SCc2ccco2)c2nonc2c1[N+](=O)[O-]`, the Potency was active: 14.1 µM. With `Cc1ccc(NC(=O)c2cc(N3C(=O)C=CC3=O)ccc2N2CCOCC2)cc1` the Potency was inconclusive: 25.1 µM [inhibitor, partial curve, poor fit]. For `O=C(O)Cc1sc(-c2cccnc2)nc1-c1ccc(Br)cc1`, the Potency was inconclusive: 39.8 µM [inhibitor, partial curve]. `CCOc1ccc(NC(=O)c2c(NCc3ccc(C)o3)sc3c2CCCCC3)cc1` was tested, and the Potency was inconclusive: 89.1 µM [inhibitor, single point]. In the case of `O=C(OCc1cc(=O)n2nc(-c3cccs3)sc2n1)c1ccccc1`, the Potency is reported as active: 35.5 µM. `Clc1ccccc1Cn1nc(-c2ccccc2)nc1-c1ccccc1` was tested, and the Potency was inconclusive: 89.1 µM [inhibitor, single point]. For `O=C(NCc1ccccc1Cl)C1CCN(S(=O)(=O)c2cccc3nonc23)CC1`, the Potency was inconclusive: 39.8 µM [inhibitor, partial curve, poor fit]. With `CNC(=O)c1ccccc1Nc1ccc(SC(F)F)cc1` the Potency was inconclusive: 89.1 µM [inhibitor, single point]. `Cc1nc2nc(SCC(=O)N3CCOCC3)nn2c(C)c1Cc1c(F)cccc1Cl` was tested, and the Potency was inconclusive: 0.112 µM [inhibitor, full curve, poor fit]. For `COc1cc(NC(=S)NC(=O)CCc2ccccc2)cc(OC)c1`, the Potency was inconclusive: 89.1 µM [inhibitor, single point]. `N#CC(C#N)=C1NC(N)=C(C#N)C(c2ccccc2)=C1C#N` was tested, and the Potency was “inactive”. For `CC(C)CN(CCCNC(=O)c1cc(-c2cccs2)nc2ccccc12)CC(C)C`, the Potency was “inactive”. In the case of `O=C(CSC1CCCCC1)Nc1nccs1`, the Potency is reported as inconclusive: 14.1 µM [inhibitor, partial curve]. In the case of `COc1ccc(CC(=O)OCC(=O)NCc2ccccc2Cl)cc1OC`, the Potency is reported as inconclusive: 0.126 µM [inhibitor, full curve, poor fit]. With `Clc1ccccc1-c1nc(-c2ccc(Br)o2)no1` the Potency was inconclusive: 0.126 µM [inhibitor, full curve, poor fit]. In the case of `C#CCOCCOCCOCCNc1nc(N2CCN(C(=O)[C@H]([C@@H](C)CC)n3cc([C@@H](N)CO)nn3)CC2)nc(N2CCN(C(=O)[C@H](Cc3cc4ccccc4[nH]3)n3cc([C@@H](N)Cc4ccc(O)cc4)nn3)CC2)n1`, the Potency is reported as inconclusive: 56.2 µM [inhibitor, partial curve]. `N=C1/C(=C\c2ccc(Br)o2)C(=O)N=C2SC(CC(=O)N3CCCCC3)=NN12` was tested, and the activity change, negative = inhibition was inconclusive: -30.6% [inhibitor]. With `COc1ccc(CCNc2cn[nH]c(=O)c2Cl)cc1OC` the Potency was inconclusive: 3.55 µM [inhibitor, single point]. For `CN1C(=O)Cc2cc(S(=O)(=O)CCC(=O)Nc3ccc(Cl)c(C(F)(F)F)c3)ccc21`, the Potency was “inactive”. `COc1cc(COCC(O)CN2C(C)CCCC2C)cc(OC)c1OC` (stereo unspecified) was tested, and the Potency was inconclusive: 89.1 µM [inhibitor, single point]. For `CC(NC(=O)CN1C(=O)c2cccnc2Oc2ccc(Cl)cc21)c1ccccc1` (stereo unspecified), the Potency was inconclusive: 79.4 µM [inhibitor, single point]. `CC(C)C[C@H](NC(=O)N1CC(=O)Nc2ccccc21)C(=O)N[C@@H](C(=O)O)c1ccccc1` was tested, and the activity change, negative = inhibition was inconclusive: -68.4% [inhibitor]. For `O=C(Cc1cccs1)N(c1ccccc1)C1C=CS(=O)(=O)C1` (stereo unspecified), the Potency was inconclusive: 20 µM [inhibitor, full curve]. With `CCc1cc2c(=O)n(Cc3ccco3)c(SCC(=O)NC3CCS(=O)(=O)C3)nc2s1` (stereo unspecified) the Potency was inconclusive: 31.6 µM [inhibitor, full curve]. For `COc1cc(-c2nnc(SCCOc3cc(C)cc(C)c3)o2)cc(OC)c1OC`, the Potency was active: 50.1 µM. `COc1cc(Cl)c(C)cc1NC(=O)c1ccc(S(C)(=O)=O)cc1` was tested, and the Potency was “inactive”. With `O=C(NCCc1ccccc1)C(=O)c1c(-c2ccccc2)[nH]c2ccccc12` the Potency was inconclusive: 89.1 µM [inhibitor, single point]. For `O=C(Cc1nc2ccccc2[nH]c1=O)c1ccccc1`, the Potency was inconclusive: 35.5 µM [inhibitor, partial curve]. With `Cc1noc(C)c1S(=O)(=O)N1CCC(C(=O)N2CCN(c3cccc(C(F)(F)F)c3)CC2)CC1` the Potency was inconclusive: 89.1 µM [inhibitor, single point]. With `COC(=O)c1ccccc1NC(=O)c1cc(C2CC2)on1` the Potency was inconclusive: 89.1 µM [inhibitor, single point]. With `O=C1c2ccc3c4c(ccc(c24)C(=O)N1c1cccc(O)c1)CC3` the Potency was inconclusive: 39.8 µM [inhibitor, single point]. For `C#CCSc1nc2sc3c(c2c(=O)n1C)CCC3`, the Potency was active: 28.2 µM. In the case of `Oc1ccccc1C1=Nc2ncnn2C(c2ccc(F)cc2)C1` (stereo unspecified), the Potency is reported as active: 31.6 µM. In the case of `CC(C)Oc1ccc(-c2nc3c(C#N)c[nH]n3c2NC2CCCCC2)cc1`, the Potency is reported as inconclusive: 0.158 µM [inhibitor, full curve, poor fit]. `CC(C)OC(=O)c1ccc(N2C(=O)C3CC=CCC3C2=O)cc1` (stereo unspecified) was tested, and the Potency was “inactive”. `CCSc1nnc(NC(=O)CSc2sc3c(O)cc(=O)[nH]c3c2C#N)s1` was tested, and the Potency was active: 35.5 µM. `CCn1cc2nc(SCC(=O)Nc3ccccc3C(F)(F)F)n(Cc3ccc(C)cc3)c(=O)c2n1` was tested, and the Potency was active: 10 µM. With `COc1ccccc1NC(=O)c1c(C)cc(C)nc1SCC(=O)c1ccc(Cl)cc1` the Potency was “inactive”. For `Cc1ccc(N=C2NC(=O)/C(=C/C=C/c3ccco3)S2)cc1C`, the Potency was active: 10 µM. For `O=C(O)CN1C(=O)/C(=C/c2ccc(N3CCCCC3)o2)SC1=S`, the Potency was active: 17.8 µM. With `O=C(CSc1ncc(S(=O)(=O)c2ccc(Cl)cc2)c(=O)[nH]1)Nc1cccc(C(F)(F)F)c1` the Potency was inconclusive: 22.4 µM [inhibitor, full curve]. For `COc1ccc(OC)c(Cc2nnc(CCC(=O)N3CCCCC3c3nccs3)o2)c1` (stereo unspecified), the Potency was inconclusive: 1 µM [inhibitor, full curve, poor fit].
